Measurements from paper doi:10.1101/2020.02.13.938316.
These are yes or no findings as the source states them, for the method shown. In cells and extracts the contact can be indirect. Binding can be weak; no strength is given. Tags and fused reporters may be left off the sequences shown.

Assays:
[1] = target: T1, GFP-ATG8a (transient expression in N. benthamiana) (UniProt Q8LEM4); assay: co-IP
T1 sequence: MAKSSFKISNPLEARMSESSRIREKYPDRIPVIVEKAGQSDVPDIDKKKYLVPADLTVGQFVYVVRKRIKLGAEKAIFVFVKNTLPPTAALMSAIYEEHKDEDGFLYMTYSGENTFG

[2] = target: T2, GFP-ATG8a (stable transgenic Arabidopsis line) (UniProt Q8LEM4); assay: co-IP
T2 sequence: T1 sequence

| Substance | binding [1] | binding [2] |
| --- | --- | --- |
| 2b-RFP (Cucumber mosaic virus) | binds |  |
| Cucumber mosaic virus (CMV) 2b protein, from infection |  | binds |
| Cucumber mosaic virus (CMV) coat protein CP, from infection |  | binds |
